Laboratory results from patent publication US11512057B2, “Unsaturated hydrocarbon pyrimidine thioether compounds and preparation method and application thereof” (Zhejiang University of Technology, priority 2018, dated 2022).
Some results were stated once for a whole list of compounds, not compound by compound.

Test system: powdery mildew of cucumber
Test: Prevention experiment of powdery mildew of cucumber, living pot assay
Format: in vivo
Settings: 100 ppm; cucumber seedlings, about 10 days
Experimental: The living pot assay method was adopted, that is, the sample of the test compound was dissolved with a small amount of DMF solvent (the kind of solvent such as acetone, methanol, DMF, etc., is selected according to the solvency of the sample, and the volume ratio of the solvent amount to the spray amount is equal to or less than 0.05), diluted with water containing 0.1% Tween 80, and formulated into the test solution with a desired concentration. Cucumber seedlings at leaf period with the same growth period was sprayed evenly with the prepared agent, and aired. Each concentration was one treatment, each treatment was repeated 3 times, a control agent and a water of blank control were set separately. The fresh powdery mildew spores on the leaves of cucumbers were washed and filtered with double gauze to prepare a suspension with a concentration of about 100,000 spores/mL. The samples were inoculated by spraying, the inoculated samples were moved into artificial climate, and relative humidity was maintained at 60-70%, the temperature was maintained at 23° C., after about 10 days, grading investigation was carried out according to the morbidity of the blank control, control effect was calculated according to disease index.

SMILES | effect of preventing powdery mildew
C=C(Cl)CSc1nc(OCc2ccccc2/C(=N\OC)C(=O)OC)cc(C(F)F)n1 [Compound 258] | more than 50%
C=C(Cl)CSc1nc(C)cc(OCc2ccccc2/C(=N\OC)C(=O)OC)n1 [Compound 177] | more than 50%
CO/N=C(/C(=O)OC)c1ccccc1COc1nc(SCC=C(Cl)Cl)nc(C(F)(F)F)c1Cl [Compound 218] | more than 50%
C=CCSc1nc(OCc2ccccc2/C(=N\OC)C(=O)OC)cc(C(F)F)n1 [Compound 146] | more than 50%

Same assay, conditions: 200 ppm; cucumber seedlings, about 10 days

SMILES | effect of preventing powdery mildew
C=C(Cl)CSc1nc(OCc2ccccc2/C(=N\OC)C(=O)OC)cc(C(F)F)n1 [Compound 258] | more than 80%
COC(=O)N(OC)c1ccccc1COc1cc(C)nc(SCCC=C(F)F)n1 [Compound 401] | more than 80%
COC(=O)N(OC)c1ccccc1COc1cc(C(F)F)nc(SCCC=C(F)F)n1 [Compound 402] | more than 80%
CO/N=C(/C(=O)OC)c1ccccc1COc1cc(C)nc(SCCC=C(F)F)n1 [Compound 257] | more than 80%
CO/N=C(/C(=O)OC)c1ccccc1COc1cc(C(F)(F)F)nc(SCCC=C(F)F)n1 [Compound 259] | more than 80%
